# Experimental data: PubChem BioAssay AID2685 (National Center for Advancing Translational Sciences (NCATS), 2010)
# Out of some 320,000 compounds screened, about 2,100 (0.66%) were called active. This list was built around the results that the source calls inconclusive (neither active nor inactive); the mix of calls is not that of the screen. Calls come from the whole dose curve; as a rule, active = well fitted inhibition curve with a large enough effect in the signal ratio, with a control signal flat (not every such curve was filed as active); inconclusive = small, poorly fitted or top-dose-only effect, or effect the other way, or a change in a side signal; inactive = flat fitted curve, though single readings scatter; the % refers to the signal ratio. Potencies beside an inconclusive call are fits to weak or partial responses and may not hold up.
# Assay: qHTS Assay for Lipid Storage Modulators in Drosophila S3 Cells
# Settings: BODIPY lipid droplet fluorescence, 18-24 h, cells fed with added oleic acid; lipid storage change, negative = inhibition: at 46.1 µM (top of the series) unless noted
# In short: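 Laser-scanning cytometry quantifies lipid droplet accumulation (500–530 nm total intensity; droplet/cell object ratio) in oleic acid-fed (400 uM added) Drosophila S3 cells treated with a concentration series. 20 uM Triacsin C defined 100% inhibition.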
# % is set by controls: 0 for no effect and ±100 for the full control effect; potency is the fitted concentration of half-maximal effect.
Structure (SMILES),"lipid storage change, negative = inhibition",Potency
CC12CCC(=O)N1C(C(=O)NNC(=O)c1ccc(Br)cc1)CS2 (stereo not drawn),inconclusive: 66.1%,–
O=C(Nc1ccc(F)cc1)C1C2CCC3C(CCC21)C3(Cl)Cl (stereo not drawn),inconclusive: 11.1%,–
CN1C(=O)/C(=C\c2ccco2)N=C1c1ccc(Cl)cc1Cl,–,"inconclusive: 9.2 µM [activator, single point]"
COc1ccc(N2C(=O)C3C(C2=O)C2C=CC3C23CC3)c(OC)c1 (stereo not drawn),inconclusive: 1.14%,–
Cc1cccn2cc(CCNC(=O)c3ccco3)nc12,inconclusive: 30.1%,–
O=C(N/N=C/c1ccncc1)C1CC1C(=O)N/N=C/c1ccncc1 (stereo not drawn),inconclusive: 259%,–
COc1cccc(N(C(=O)c2cnccn2)C(C(=O)NC2CCCCC2)c2ccc(Cl)cc2)c1 (stereo not drawn),–,"inconclusive: 6.51 µM [activator, single point]"
CCOc1ccc(N(CC(=O)Nc2cccc(Cl)c2)S(=O)(=O)c2c(C)noc2C)cc1,–,"inconclusive: 32.6 µM [falling, single point]"
COc1ccccc1-c1nc2cc(Cl)ccc2c(=O)n1O,–,"inconclusive: 3.66 µM [falling, single point]"
CC(C)C(NC(=O)c1ccccc1Cl)C(=O)OCc1nc2scc(-c3ccccc3Cl)c2c(=O)[nH]1 (stereo not drawn),–,"inconclusive: 10.3 µM [activator, partial curve, poor fit]"
Cc1ccc(NC(=O)c2cnn(-c3ccccc3)c2NC(=O)c2ccco2)cc1,–,"inconclusive: 0.731 µM [falling, single point]"
NC(=O)COc1ccc2cc(-c3ccccc3)c(=O)oc2c1,–,"inconclusive: 1.64 µM [falling, partial curve, poor fit]"
O=C(CCNS(=O)(=O)c1ccc(OC(F)(F)F)cc1)N1CCCC1,inconclusive,–
COc1ccc2oc(C(=O)NNC(=O)c3ccc(F)cc3)c(C)c2c1,inconclusive: -0.29%,–
O=C(O)c1cc([N+](=O)[O-])ccc1Nc1ccccc1,inconclusive: 1.25%,–
CC(OC(=O)CC1CC2CCC1C2)C(=O)Nc1cccc(S(=O)(=O)N2CCOCC2)c1 (stereo not drawn),inconclusive,–
CC12CN3CC(C)(CN(C1)C31C(=O)N(Cc3ccccc3)c3ccccc31)C2=O (stereo not drawn),inconclusive: 4.12%,–
Cc1ccc2c(c1)N(C(=O)CCC(=O)N1CCc3ccccc3C1)CCO2,inconclusive: -30.2%,–
CC(=O)c1ccc(OCC(O)CN2CCN(c3ccccn3)CC2)cc1 (stereo not drawn),inconclusive: 2.11% [at 9.22 µM],–
CCOC(=O)c1c(C)[nH]c(C)c1C(=O)COC(=O)c1cccnc1SC,inconclusive: 4.24%,–
CCOC(=O)C1CCCN(Cc2ccc(OC)cc2OC)C1 (stereo not drawn),inconclusive: -9.03%,–
O=C(CC1(O)C(=O)Nc2ccccc21)c1cccc(Br)c1 (stereo not drawn),inconclusive: -24.2%,–
Cc1cccc(S(=O)(=O)c2c(N)n(/N=C/c3cccnc3)c3nc4ccccc4nc23)c1,inconclusive: 51.8%,–
COc1cc(C(C)=O)ccc1OC(=O)c1cc2cccc(OC)c2oc1=O,inconclusive: -13.7%,–

# Filtered by structure: the compounds so far containing sulfur.
Structure (SMILES),"lipid storage change, negative = inhibition",Potency
CC12CCC(=O)N1C(C(=O)NNC(=O)c1ccc(Br)cc1)CS2 (stereo not drawn),inconclusive: 66.1%,–
CCOc1ccc(N(CC(=O)Nc2cccc(Cl)c2)S(=O)(=O)c2c(C)noc2C)cc1,–,"inconclusive: 32.6 µM [falling, single point]"
CC(C)C(NC(=O)c1ccccc1Cl)C(=O)OCc1nc2scc(-c3ccccc3Cl)c2c(=O)[nH]1 (stereo not drawn),–,"inconclusive: 10.3 µM [activator, partial curve, poor fit]"
O=C(CCNS(=O)(=O)c1ccc(OC(F)(F)F)cc1)N1CCCC1,inconclusive,–
CC(OC(=O)CC1CC2CCC1C2)C(=O)Nc1cccc(S(=O)(=O)N2CCOCC2)c1 (stereo not drawn),inconclusive,–
CCOC(=O)c1c(C)[nH]c(C)c1C(=O)COC(=O)c1cccnc1SC,inconclusive: 4.24%,–
Cc1cccc(S(=O)(=O)c2c(N)n(/N=C/c3cccnc3)c3nc4ccccc4nc23)c1,inconclusive: 51.8%,–

# Looked up above.
# Entry of CN1C(=O)/C(=C\c2ccco2)N=C1c1ccc(Cl)cc1Cl under Potency: inconclusive: 9.2 µM [activator, single point]
# Entry of CC12CN3CC(C)(CN(C1)C31C(=O)N(Cc3ccccc3)c3ccccc31)C2=O (stereo not drawn) under lipid storage change, negative = inhibition: inconclusive: 4.12%

# Continued:

Structure (SMILES),"lipid storage change, negative = inhibition",Potency
CC1CCC(N2CCN(c3ncccn3)CC2)C1 (stereo not drawn),inconclusive: -178%,–
CN(CC(=O)Nc1ccccc1Cl)CC(=O)N1CCc2ccccc21,–,"inconclusive: 0.82 µM [activator, full curve, poor fit]"
CC(C)(C)C1CCC(=NNC(=O)c2ccc(Br)o2)CC1 (stereo not drawn),inconclusive: 7.77%,–
CCC(CC)c1nnc(NC(=O)CN2C(=O)c3ccccc3C2=O)s1,inconclusive: -32.4% [at 9.22 µM],–
COc1ccc(-n2nnnc2/C=C\Nc2ccc(C)cc2)cc1,inconclusive: 13.7%,–
Cc1ccc(CNC(=O)C2CCC(=O)N(CCc3ccccc3)C2)s1 (stereo not drawn),–,"inconclusive: 6.51 µM [activator, single point]"
Cc1cc(C)nc(Sc2nc(Cl)nc(N(c3ccccc3)c3ccccc3)n2)n1,–,"inconclusive: 29.1 µM [cytotoxic, single point]"
CCC(C)Nc1c([N+](=O)[O-])cc(C)cc1[N+](=O)[O-] (stereo not drawn),–,"inconclusive: 29.1 µM [falling, single point]"
COc1ccc(CCNC(=O)CCc2nnc(Cc3ccc4c(c3)OCO4)o2)c(OC)c1,–,"inconclusive: 29.1 µM [activator, single point]"
COc1cccc(C2N(Cc3ccccc3)C(=O)C2(F)F)c1OC (stereo not drawn),–,"inconclusive: 0.164 µM [activator, full curve]"
O=C(c1cnc(N2CCN(c3ncccn3)CC2)c2ccccc12)N1CCN(c2ccccn2)CC1,inconclusive: 59.8%,–
O=c1cc(CSc2ccc(Cl)cc2)nc2nc[nH]n12,–,"inconclusive: 29.1 µM [activator, single point]"
COC(=O)c1ccc(NC(=O)c2ccc3c(c2)OCO3)cc1,–,"inconclusive: 16.4 µM [activator, single point]"
CC(NC(=O)c1ccccc1Cl)C(=O)O (stereo not drawn),inconclusive: -27.8%,–
CCn1cc(C(=O)NCc2ccccn2)c(=O)c2cc(S(=O)(=O)N3CCCCC3)ccc21,inconclusive: 32%,–
CCOc1ccc(NC(=O)CSC(N)=O)cc1,inconclusive: 47%,–
COc1ccc(C2C(Oc3ccccc3C)C(=O)N2Cc2ccc(F)cc2)cc1OC (stereo not drawn),–,"inconclusive: 23.1 µM [rising, single point]"
CC1CC(=O)N(CC(=O)Nc2ccc3c(c2)OCO3)c2ccccc2S1 (stereo not drawn),–,"inconclusive: 1.16 µM [rising, single point]"
COc1ccc(C2=NOC(C(=O)N3CCN(C(=O)c4ccco4)CC3)C2)cc1OC (stereo not drawn),inconclusive: 3.93%,–
O=C(Nc1sc2c(c1C(=O)O)CCCC2)C(=O)N1CCOCC1,inconclusive: 1.83%,–
CCOC(=O)N1CCc2c(sc3c2c(=O)n(Cc2ccccc2)c(=O)n3CC(=O)NCCOC)C1,inconclusive: 4.16%,–
O=C(Nc1nnc(-c2cccnc2)o1)c1cccc([N+](=O)[O-])c1,inconclusive: -23.8%,–
Cc1ccc(NC(=O)c2oc(=O)c3ccccc3c2-c2ccccc2)c(C)c1,inconclusive: 21%,–
CCCc1ccc(C(=O)NNC(=O)c2ccc(Br)cc2)cc1,inconclusive: 15.6%,–
